# Assay results from the supplement of paper PMC8728848.
# Some of the results follow.
# B1: SP15308F-bth-333-19-333 (Bacteroides thetaiotaomicron) (protein)
# chain: SCNNEWESEQYVQMVSFKAPVNAQGVTPIYIRYKPEGKVTYQLPLIVSGSTMNSKDLNVHVGLDLDTLDVLNVEHFGSRKELFFKPLENKYYEFPETVQIPAGECTSLLPIDFALKDLDQVDKWVLPLAIQSNDPSHNYQANPRKFYRRAMLRISPFNDYSGQYSATAYKVYFKGNEKEAIVPEYHTSYVIDDKTIFFYAGLIDIDRLDRKYYKIKFEFTEEKIDLQTRKLKISSDNEDINLVVKGQPSYTVEEEMDATRPYLKHIYVTINNLEYEFTDYTSVPGYPLEYVVKGSLTMERKINTQIPDEDQAIEW
# Legend:
# Test in all cases: glycan array binding signal (z-score within array); higher = stronger binding
# Details in all cases: glycan notation: IUPAC condensed, linker removed
# Neu5Ac(a2-8)Neu5Ac = target: Neu5Ac(a2-8)Neu5Ac
# Summary of the method: (§1)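 Glycan array binding is given as a within-array Z-score, which can be read as non-binding when negative. The arrays, 3228 of them, came from the Consortium for Functional Glycomics database and were retained only where the protein sequence was available. Z-scores were averaged across arrays of the same protein sequence at different concentrations or buffers and across linkers.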
# [1] = target: Neu5Ac(a2-8)Neu5Ac(a2-3)Gal(b1-3)GalNAc(b1-4)[Neu5Ac(a2-3)]Gal(b1-4)Glc
# Summary of the method: as §1
# [2] = target: Neu5Ac(a2-8)Neu5Ac(a2-3)Gal(b1-3)GalNAc(b1-4)[Neu5Ac(a2-8)Neu5Ac(a2-3)]Gal(b1-4)Glc
# Summary of the method: as §1
# [3] = target: Neu5Ac(a2-8)Neu5Ac(a2-3)Gal(b1-4)Glc
# Summary of the method: as §1
# [4] = target: Neu5Ac(a2-8)Neu5Ac(a2-3)Gal(b1-4)GlcNAc
# Summary of the method: as §1
# [5] = target: Neu5Ac(a2-8)Neu5Ac(a2-3)[Gal(b1-3)GalNAc(b1-4)]Gal(b1-4)Glc
# Summary of the method: as §1
# [6] = target: Neu5Ac(a2-8)Neu5Ac(a2-3)[GalNAc(b1-4)]Gal(b1-4)Glc
# Summary of the method: as §1
# [7] = target: Neu5Ac(a2-8)Neu5Ac(a2-8)Neu5Ac
# Summary of the method: as §1
# [8] = target: Neu5Ac(a2-8)Neu5Ac(a2-8)Neu5Ac(a2-3)Gal(b1-4)Glc
# Summary of the method: as §1
# [9] = target: Neu5Ac(a2-8)Neu5Ac(a2-8)Neu5Ac(a2-3)[Gal(b1-3)GalNAc(b1-4)]Gal(b1-4)Glc
# Summary of the method: as §1
# [10] = target: Neu5Ac(a2-8)Neu5Ac(a2-8)Neu5Ac(a2-3)[GalNAc(b1-4)]Gal(b1-4)Glc
# Summary of the method: as §1
# [11] = target: Neu5Ac(a2-8)Neu5Ac(a2-8)Neu5Ac(a2-8)Neu5Ac(a2-3)[GalNAc(b1-4)]Gal(b1-4)Glc
# Summary of the method: as §1
# [12] = target: Neu5Ac(a2-8)Neu5Gc(a2-3)Gal(b1-4)GlcNAc
# Summary of the method: as §1
# [13] = target: Neu5Ac(b2-6)Gal(b1-4)GlcNAc
# Summary of the method: as §1
# Neu5Ac(b2-6)GalNAc = target: Neu5Ac(b2-6)GalNAc
# Summary of the method: as §1
# [14] = target: Neu5Ac9Ac(a2-3)Gal(b1-3)GlcNAc
# Summary of the method: as §1
# [15] = target: Neu5Ac9Ac(a2-3)Gal(b1-4)GlcNAc
# Summary of the method: as §1
# [16] = target: Neu5Ac9Ac(a2-6)Gal(b1-4)GlcNAc
# Summary of the method: as §1
# [17] = target: Neu5Gc(a2-3)Gal(b1-3)GlcNAc
# Summary of the method: as §1
# [18] = target: Neu5Gc(a2-3)Gal(b1-3)[Fuc(a1-4)]GlcNAc
# Summary of the method: as §1
# Neu5Gc(a2-3)Gal(b1-4)Glc = target: Neu5Gc(a2-3)Gal(b1-4)Glc
# Summary of the method: as §1
# [19] = target: Neu5Gc(a2-3)Gal(b1-4)GlcNAc
# Summary of the method: as §1
# [20] = target: Neu5Gc(a2-3)Gal(b1-4)GlcNAc(b1-3)Gal(b1-4)GlcNAc(b1-2)Man(a1-3)[Neu5Gc(a2-3)Gal(b1-4)GlcNAc(b1-3)Gal(b1-4)GlcNAc(b1-2)Man(a1-6)]Man(b1-4)GlcNAc(b1-4)GlcNAc
# Summary of the method: as §1
# [21] = target: Neu5Gc(a2-3)Gal(b1-4)[Fuc(a1-3)]GlcNAc
# Summary of the method: as §1
# [22] = target: Neu5Gc(a2-6)Gal(b1-4)GlcNAc
# Summary of the method: as §1
# Neu5Gc(a2-6)GalNAc = target: Neu5Gc(a2-6)GalNAc
# Summary of the method: as §1
# [23] = target: Neu5Gc(a2-8)Neu5Ac(a2-3)Gal(b1-4)GlcNAc
# Summary of the method: as §1
# [24] = target: Neu5Gc(a2-8)Neu5Gc(a2-3)Gal(b1-4)GlcNAc
# Summary of the method: as §1
# [25] = target: Neu5Gc(a2-8)Neu5Gc(a2-3)Gal(b1-4)GlcNAc(b1-3)Gal(b1-4)GlcNAc
# Summary of the method: as §1
# [26] = target: Neu5Gc(a2-8)Neu5Gc(a2-6)Gal(b1-4)GlcNAc
# Summary of the method: as §1
# [27] = target: Neu5Gc(b2-6)Gal(b1-4)GlcNAc
# Summary of the method: as §1
binder,measurement,setting,value
B1,glycan array binding signal (z-score),Neu5Ac(a2-8)Neu5Ac,0.541
same,glycan array binding signal (z-score),[1],-0.745
same,glycan array binding signal (z-score),[2],1.36
same,glycan array binding signal (z-score),[3],-1.69
same,glycan array binding signal (z-score),[4],-0.461
same,glycan array binding signal (z-score),[5],0.283
same,glycan array binding signal (z-score),[6],-0.682
same,glycan array binding signal (z-score),[7],-0.609
same,glycan array binding signal (z-score),[8],-0.372
same,glycan array binding signal (z-score),[9],-0.122
same,glycan array binding signal (z-score),[10],-0.133
same,glycan array binding signal (z-score),[11],-0.063
same,glycan array binding signal (z-score),[12],0.16
same,glycan array binding signal (z-score),[13],0.245
same,glycan array binding signal (z-score),Neu5Ac(b2-6)GalNAc,-0.677
same,glycan array binding signal (z-score),[14],0.704
same,glycan array binding signal (z-score),[15],-0.366
same,glycan array binding signal (z-score),[16],-1.32
same,glycan array binding signal (z-score),[17],0.049
same,glycan array binding signal (z-score),[18],0.217
same,glycan array binding signal (z-score),Neu5Gc(a2-3)Gal(b1-4)Glc,1
same,glycan array binding signal (z-score),[19],0.838
same,glycan array binding signal (z-score),[20],-0.366
same,glycan array binding signal (z-score),[21],-0.947
same,glycan array binding signal (z-score),[22],-0.941
same,glycan array binding signal (z-score),Neu5Gc(a2-6)GalNAc,0.096
same,glycan array binding signal (z-score),[23],2.07
same,glycan array binding signal (z-score),[24],-0.784
same,glycan array binding signal (z-score),[25],-0.522
same,glycan array binding signal (z-score),[26],-0.185
same,glycan array binding signal (z-score),[27],1.06

# As a short view, some entries already given.
binder,measurement,setting,value
B1,glycan array binding signal (z-score),[8],-0.372
same,glycan array binding signal (z-score),[9],-0.122
